# The list shows a part of the results. The main result of the screen is listed elsewhere. These columns were measured beside it and carry no call. The list favours compounds with an active or inconclusive main result. The note in brackets gives the kind of curve behind each potency; many fits are weak.
# Experiment: IkB Signaling
# Conditions: ABC-DLBCL IkBa-CBG/CBR dual luciferase ratio (green luciferase fused to IkBa over red control in OCI-Ly3 lymphoma cells), 4 h
# How it was run: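 Curves were fitted separately to fusion (green), unfused (red) and ratio luminescence, then classed by r2, magnitude and activity. Cells: OCI-Ly3, 4 h compound plus doxycycline at 37C; 10 uM MG-132 defined full response.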
# [1] = measured here: control luc red channel unless noted
# [2] = measured here: IkB-luc green channel
# [3] = measured here: control luc red channel
smiles,measurement,setting,value
O=C(COc1ccc(Br)cc1CO)Nc1ccc(F)cc1,AC50,[1],"20 µM [falling, single point]"
Cc1nc2ccc(S(=O)(=O)N(CC(=O)Nc3ccc(F)cc3F)Cc3ccccc3)cc2s1,AC50,[1],"20 µM [falling, partial curve]"
NC(=O)c1sc2nc(N3CCCCC3)c3c(c2c1N)CCCC3,AC50,[1],"7.94 µM [falling, partial curve]"
CCOc1ccc(NC(=O)c2ccc3[nH]c(C)c(C)c3c2)cc1,AC50,[1],"12.6 µM [falling, partial curve]"
O=S(=O)(NCCc1csc(-c2ccccc2)n1)c1ccc2c(c1)OCCO2,AC50,[1],"31.6 µM [falling, single point]"
Cc1ccc(S(=O)(=O)Nc2cccc(-c3cn4cccc(C)c4n3)c2)c(C)c1,AC50,[1],"20 µM [falling, partial curve]"
Cc1ccccc1NC(=O)Cn1cc(C(=O)c2cccs2)c2ccccc21,AC50,[1],"7.94 µM [falling, partial curve]"
CCc1ccc(NC(=O)CSC2=Nc3ccccc3C3=NC(CCC(=O)NCc4ccccc4)C(=O)N23)cc1 (stereo not drawn),AC50,[1],"39.8 µM [falling, single point]"
CCCCC(=O)OC1=C(C(=O)c2ccccc2)N(CCC)S(=O)(=O)c2ccccc21,AC50,[1],"10 µM [falling, partial curve]"
CC(NC(=O)CSc1n[nH]c(-c2ccccc2Cl)n1)c1nc2ccccc2[nH]1 (stereo not drawn),AC50,[1],"3.98 µM [falling, partial curve]"
CS(=O)(=O)Nc1cccc(-c2ccc3ncnc(NCCN4CCOCC4)c3c2)c1,AC50,[1],"3.16 µM [rising, partial curve]"
Cc1ccsc1CN1CCc2nc(Nc3ccccc3)ncc2C1,AC50,[1],"39.8 µM [falling, single point]"
O=C1CCCc2cc(S(=O)(=O)N3CCCC(C(=O)NCc4ccccc4)C3)ccc2N1 (stereo not drawn),AC50,[1],"0.00631 µM [falling, full curve, poor fit]"
CCOc1ccc(C(=O)Nc2cccc(-c3nc4cccnc4o3)c2)cc1Cl,AC50,[1],"6.31 µM [falling, full curve]"
COc1cccc(NC(=O)CCNS(=O)(=O)c2ccc3c(c2)oc(=O)n3C)c1,AC50,[1],"20 µM [falling, partial curve]"
Cc1cc(C)c2c(=O)n(CC(=O)NCCCN3CCN(c4ccccc4F)CC3)sc2n1,AC50,[2],"3.16 µM [falling, single point]"
same,AC50,[3],"25.1 µM [falling, single point]"
CCOc1ccc(NS(=O)(=O)c2cc3c(cc2Cl)NC(=O)CO3)cc1,AC50,[1],"20 µM [falling, partial curve, poor fit]"
Cc1cc(C)c(NC(=O)CCS(=O)(=O)c2cc3c(cc2Cl)NC(=O)CO3)c(C)c1,AC50,[1],"39.8 µM [falling, single point]"
O=C(CSCn1nnc2c(=O)[nH]c(Cc3ccc(F)cc3)nc21)Nc1cccc(C(F)(F)F)c1,AC50,[1],"31.6 µM [falling, single point]"
COc1cc2c(cc1OC)C(COc1cccc(C(F)(F)F)c1)N(C(=O)c1ccc(S(=O)(=O)N3CCCC3)cc1)CC2 (stereo not drawn),AC50,[1],"39.8 µM [falling, single point]"
O=C(Nc1ccc2c(c1)oc1ccccc12)c1ccc(Br)o1,AC50,[1],"10 µM [falling, partial curve]"
Cc1ccc(CCNC(=O)CS(=O)Cc2nc(-c3ccccc3Cl)oc2C)cc1 (stereo not drawn),AC50,[1],"31.6 µM [falling, single point]"
COc1ccc(CNC(=O)C(c2cccs2)N(C(=O)c2csnn2)C2CC2)cc1 (stereo not drawn),AC50,[2],"6.31 µM [rising, single point]"
same,AC50,[3],"15.8 µM [falling, partial curve]"
Cc1ccc2oc(C(=O)Nc3cccc(Cl)c3)cc(=O)c2c1,AC50,[1],"0.631 µM [rising, full curve]"
COc1ccccc1C(=O)Nc1ccccc1OCc1cc(=O)n2ccccc2n1,AC50,[1],"3.98 µM [falling, partial curve]"
COc1ccc(CNc2nc3c(-c4ccccc4)nnn3c3ccccc23)cc1,AC50,[1],"0.631 µM [falling, full curve]"
CCNc1nc(NCc2ccc(F)cc2)c2cnn(C)c2n1,AC50,[1],"15.8 µM [falling, single point]"
O=S(=O)(NCCS(=O)(=O)N1CCN(c2ccccc2)CC1)c1ccc(Br)cc1,AC50,[1],"1.58 µM [falling, full curve, poor fit]"
CN(C)c1ccc(NC(=O)CN2C(=O)c3ccccc3Sc3ccc(C(=O)N4CCCC4)cc32)cc1,AC50,[1],"1 µM [rising, full curve]"
CCOC(=O)C1CCN(C(=O)Cn2ncc3c4ccccc4n(Cc4ccccc4F)c3c2=O)CC1,AC50,[1],"25.1 µM [falling, single point]"
CCN(C(=O)c1cccn(Cc2ccccc2C)c1=O)c1ccccc1,AC50,[1],"7.94 µM [falling, single point]"
Cc1ccc(NC(=O)CN2C(=O)CCn3nc(-c4cccn4C)cc32)c(Cl)c1,AC50,[1],"0.0316 µM [rising, full curve, poor fit]"
CCc1nc(OCc2ccco2)c2sc3nc4c(cc3c2n1)COC(C)(C)C4,AC50,[1],"12.6 µM [falling, partial curve]"
COc1ccc(N2CCN(CC(=O)Nc3c(C)cc(C)cc3C)CC2)cc1,AC50,[1],"25.1 µM [falling, partial curve]"
Cc1ccc(F)cc1NC(=O)c1ccc(Cn2nc(N3CCN(c4ccccc4)CC3)ccc2=O)o1,AC50,[1],"39.8 µM [falling, single point]"
COc1ccccc1S(=O)(=O)Cc1ccc(C(=O)N2CCN(c3cccc(Cl)c3)CC2)o1,AC50,[1],"7.94 µM [falling, partial curve]"
Cc1cccc(NC(=O)C2CCN(S(=O)(=O)c3cccc4cccnc34)CC2)n1,AC50,[1],"15.8 µM [falling, partial curve]"
COC(=O)c1cnn(-c2ccc(C(=O)Nc3ccc(OC(F)(F)F)cc3)cc2)c1N,AC50,[1],"39.8 µM [falling, single point]"
OC[C@@H]1O[C@@H](n2cnc3cncnc32)[C@@H](O)[C@H]1O,AC50,[1],"31.6 µM [falling, partial curve, poor fit] [measured here: IkB-luc green channel]"
CC(NC(=O)c1c2c(nc3ccccc13)C(=O)N(C1CCCCC1)C2)c1ccccc1 (stereo not drawn),AC50,[1],"10 µM [falling, partial curve]"
CN(C)S(=O)(=O)c1ccc2c(c1)N(CC(=O)N1CCN(c3cccc(Cl)c3)CC1)CCS2,AC50,[1],"2 µM [falling, full curve]"
COc1cc(NC(=O)Nc2nnc(N3CCCCCC3)s2)cc(OC)c1,AC50,[1],"25.1 µM [falling, single point]"
CC1CCCN(Cc2c(O)ccc3c(=O)c(Oc4ccc(C(C)(C)C)cc4)c(C(F)(F)F)oc23)C1 (stereo not drawn),AC50,[1],"12.6 µM [falling, partial curve]"
COc1cc(NC(=O)Cn2ncc3c2-c2ccccc2OC3)cc(OC)c1OC,AC50,[1],"20 µM [falling, partial curve]"
Nc1cccc2c(N)cccc12,AC50,[1],"31.6 µM [rising, partial curve] [measured here: IkB-luc green channel]"
O=C(Cn1cc(SCc2ccccc2)c2ccccc21)N1CCCCCC1,AC50,[1],"15.8 µM [falling, partial curve]"
COc1cccc(CNc2ccc(N3CCCCC3)cc2)c1OC,AC50,[1],"12.6 µM [falling, partial curve]"
Cc1nnc(SCCC(=O)Nc2nc(-c3ccccc3)ns2)s1,AC50,[1],"31.6 µM [falling, single point]"
Cc1ccc(N2CCN(c3c(CN4CCCC4)c(=O)oc4ccccc34)CC2)c(C)c1,AC50,[1],"3.98 µM [falling, partial curve]"
COCCCNC(=O)c1c(NC(=O)c2cc(=O)c3ccccc3o2)sc2c1CCCC2,AC50,[1],"1.58 µM [falling, full curve]"
Cc1ccc2nc(-c3ccc(Cl)c(NC(=O)c4cccc([N+](=O)[O-])c4C)c3)oc2c1,AC50,[1],"0.794 µM [falling, partial curve]"
CCOC(=O)c1noc2ncnc(N3CCN(c4cccc(Cl)c4)CC3)c12,AC50,[1],"12.6 µM [falling, partial curve]"
COC(=O)c1cccc(S(=O)(=O)N2CCC(NC(=O)NC34CC5CC(CC(C5)C3)C4)CC2)c1,AC50,[1],"39.8 µM [falling, single point]"
COc1ccc(-c2nc3nc(C)cc(N4CCN(c5cccc(C(F)(F)F)c5)CC4)n3n2)cc1,AC50,[1],"0.316 µM [falling, partial curve]"
COc1ccc(CCNC(=O)c2cc3c(s2)-c2c(C)cccc2OC3)c(OC)c1,AC50,[1],"0.158 µM [falling, full curve]"
Cc1cccc2c1-c1sc(C(=O)NCc3ccc(Cl)cc3)cc1CO2,AC50,[1],"15.8 µM [falling, partial curve]"
CCN(Cc1ccccc1)C(=O)c1cc2c(=O)oc3ccc(C)cc3c2s1,AC50,[1],"39.8 µM [falling, single point]"
Cc1cc(C(=O)Cn2nnc(-c3ccc(Cl)cc3)n2)c(C)n1CC1CCCO1 (stereo not drawn),AC50,[1],"10 µM [falling, partial curve]"
COc1ccccc1Cn1c(=O)c2ccccc2n2c(SCc3csc(C)n3)nnc12,AC50,[1],"15.8 µM [falling, partial curve]"
COc1ccc(NC(=O)c2oc3ccccc3c2NC(=O)C(C)(C)C)cc1,AC50,[1],"7.94 µM [falling, partial curve]"
Cc1cccc(NC(=O)CSc2nc(=O)n(Cc3ccco3)c3c2CCC3)c1C,AC50,[1],"3.98 µM [falling, partial curve]"

# 4 entries from above, as tab-separated lines.
smiles	measurement	setting	value
CCOc1ccc(NC(=O)c2ccc3[nH]c(C)c(C)c3c2)cc1	AC50	[1]	12.6 µM [falling, partial curve]
O=S(=O)(NCCc1csc(-c2ccccc2)n1)c1ccc2c(c1)OCCO2	AC50	[1]	31.6 µM [falling, single point]
Cc1ccc(S(=O)(=O)Nc2cccc(-c3cn4cccc(C)c4n3)c2)c(C)c1	AC50	[1]	20 µM [falling, partial curve]
Cc1ccccc1NC(=O)Cn1cc(C(=O)c2cccs2)c2ccccc21	AC50	[1]	7.94 µM [falling, partial curve]

# Reference: PubChem BioAssay AID445 (National Center for Advancing Translational Sciences (NCATS), 2006)
